PubChem BioAssay AID1259254 | NCATS – 2017
The deposit covers about 59,000 reagents; this is a random part of them. About 1,550 of all reagents (2.6%) were called active. 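G2 share is only a proxy for re-replication; each gene was hit by three separate siRNAs, and active genes were retested.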 Unmarked entries are inactive. The numbers tell different reagents against one gene apart. Not all columns of the deposit are shown. The record does not give: the amount of reagent.

- Purpose: 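Genome-wide screen for genes that prevent DNA re-replication in cancer cells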 (primary screen)
- Cells: human HCT116 colorectal cancer cells
- Knock-down reagent: single siRNA against human genes
- Timing: 3 days
- Measured: 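Nuclei stained with Hoechst and imaged; cell-cycle phase assigned by DNA content; G2 share scaled per plate, non-targeting siRNA 0%, GMNN siRNA 100%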
- Direction: G2 robust z-score and G2 cells, % of GMNN control: higher = more G2 cells, more excess DNA replication
- Active means: 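An siRNA counts as active if its G2 robust z-score lies at least 5 MADs above the screen median; here such calls match roughly 38% of GMNN control or more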

How did the screen score STX3 (GeneID 6809) #1?
G2 robust z-score: 0.849; G2 cells, % of GMNN control: 8.94

With STX3 (GeneID 6809) #2, how do the results read?
G2 robust z-score: 0.321; G2 cells, % of GMNN control: 5.23

Which result is listed for STX3 (GeneID 6809) #3?
G2 robust z-score: 0.0656; G2 cells, % of GMNN control: 3.43

What did the screen give for PAGE1 (GeneID 8712) #1?
G2 robust z-score: -0.0956; G2 cells, % of GMNN control: 2.29

How did the screen score PAGE1 (GeneID 8712) #2?
G2 robust z-score: 5.23 (active); G2 cells, % of GMNN control: 39.8

With PAGE1 (GeneID 8712) #3, what was measured?
G2 robust z-score: 0.512; G2 cells, % of GMNN control: 6.57

With TNIP3 (GeneID 79931) #1, what was measured?
G2 robust z-score: -0.608; G2 cells, % of GMNN control: -1.31

With TNIP3 (GeneID 79931) #2, what does the deposit list?
G2 robust z-score: -0.0161; G2 cells, % of GMNN control: 2.85

Which result is listed for TNIP3 (GeneID 79931) #3?
G2 robust z-score: -0.654; G2 cells, % of GMNN control: -1.64

Which result is listed for KRTAP5-8 (GeneID 57830) #1?
G2 robust z-score: -0.554; G2 cells, % of GMNN control: -0.928

For KRTAP5-8 (GeneID 57830) #2, what was measured?
G2 robust z-score: 0.216; G2 cells, % of GMNN control: 4.49

With KRTAP5-8 (GeneID 57830) #3, what was measured?
G2 robust z-score: 0.239; G2 cells, % of GMNN control: 4.65

For SLC37A3 (GeneID 84255) #1, what does the deposit list?
G2 robust z-score: 0.463; G2 cells, % of GMNN control: 6.23

With SLC37A3 (GeneID 84255) #2, what does the deposit list?
G2 robust z-score: 0.875; G2 cells, % of GMNN control: 9.12

What did the screen give for SLC37A3 (GeneID 84255) #3?
G2 robust z-score: -0.549; G2 cells, % of GMNN control: -0.894

3 entries from above, sorted by “G2 cells, % of GMNN control”, highest first.
PAGE1 (GeneID 8712) #2: G2 robust z-score = 5.23 (active); G2 cells, % of GMNN control = 39.8
PAGE1 (GeneID 8712) #3: G2 robust z-score = 0.512; G2 cells, % of GMNN control = 6.57
TNIP3 (GeneID 79931) #1: G2 robust z-score = -0.608; G2 cells, % of GMNN control = -1.31

Continued:
With BICD1 (GeneID 636) #1, what was measured?
G2 robust z-score: 3.24; G2 cells, % of GMNN control: 25.8

Which result is listed for BICD1 (GeneID 636) #2?
G2 robust z-score: -0.842; G2 cells, % of GMNN control: -2.95

For BICD1 (GeneID 636) #3, what does the deposit list?
G2 robust z-score: -0.241; G2 cells, % of GMNN control: 1.27

How did the screen score POU5F1 (GeneID 5460) #1?
G2 robust z-score: 0.446; G2 cells, % of GMNN control: 6.1

What did the screen give for POU5F1 (GeneID 5460) #2?
G2 robust z-score: 0.412; G2 cells, % of GMNN control: 5.86

With POU5F1 (GeneID 5460) #3, what does the deposit list?
G2 robust z-score: 1.17; G2 cells, % of GMNN control: 11.2

How did the screen score PLAGL1 (GeneID 5325) #1?
G2 robust z-score: 0.479; G2 cells, % of GMNN control: 6.34

What did the screen give for PLAGL1 (GeneID 5325) #2?
G2 robust z-score: 1.85; G2 cells, % of GMNN control: 16

Which result is listed for PLAGL1 (GeneID 5325) #3?
G2 robust z-score: -0.0278; G2 cells, % of GMNN control: 2.77
